About 210 (0.4%) of roughly 52,000 sequences were called active.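 How the source made its calls: active means gene whose silencing raises cell survival under the drug, median off-target-corrected z-score across its silencing RNAs 2 or more; inactive means the rest.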 This is one part of the list.
Test: Resistance to Poly (ADP-Ribose) Polymerase inhibitor: Gene Identification via Genome-wide siRNA Screen
Conditions: mouse BRCA2 R2336H ES cells, olaparib, CellTiter-Glo viability; stronger effect = higher value
How it was run: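 Mouse BRCA2 R2336H ES cells were reverse-transfected with siRNA (20 nM final), treated at 48 h with 500 nM olaparib, and read by CellTiter-Glo after 72 h. Scores: MAD-based z per siRNA, median per gene, seed off-target correction.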

| Sequence | z-score |
| --- | --- |
| CGAAUGCUUAUUUAGGUUGTT against Kpna4 | inactive: 1.67 |
| CCUUGUGUCACUACCCACATT against Nr5a1 | inactive: -0.189 |
| GGGUUCAAAACUAUGGAUATT against 2610018G03Rik | inactive: -0.033 |
| GGGAAUGGCACCAUUUUCUTT against Pbp2 | inactive: -1.26 |
| GGGCCAUGAUAGGACACACTT against Nme4 | inactive: -0.351 |
| GGCAUGGAAUGAGCUUUUCTT against Nr2e3 | inactive: 1.1 |
| GGAGCAUCGAUCUUGAUUCTT against D430044G18Rik | inactive: 1.09 |
| GCCGUAUUUUGCUUGUUUCTT against Gpr35 | inactive: -0.846 |
| GCGUGGUGUAUUUGAAUCATT against Ch25h | inactive: 0.79 |
| GCCAGUGAUUAGUGUUUAUTT against D8Ertd531e | inactive: -0.933 |
| GGUAGUGAAAAUGAAGAGUTT against Gtf2h1 | inactive: 1.12 |
| CGUAAGUUAUGUGUCUAAGTT against 1810008A18Rik | inactive: -0.452 |
| CCCUCUACACUAUACCACATT against Olfr347 | inactive: -0.929 |
| CGAGAAGGGAUUUUAGAAGTT against A830018L16Rik | inactive: 0.274 |
| GGAAGAUUACCAACUUUGATT against E130307J04Rik | inactive: -1.2 |
| AGGGCACAAAAGGUGACAATT against Rph3al | inactive: 0.501 |
| CCGCGUCGGGCCACCACUGTT against 2310037P21Rik | inactive: -0.285 |
| GCUUAGUCUUAUGUAGCUCTT against AI662250 | inactive: -0.256 |
| GGUGACUAGAAAAAUGGAUTT against Cd1d1 | inactive: 0.878 |
| GGACAGUAUGGAAAAGUAUTT against Map3k4 | inactive: -2.89 |
| GCACUCUCUACUCUAUUAATT against Ccbp2 | inactive: -1.5 |
| GAGCGGGACUUUUGUCAUGTT against 6330580J24Rik | inactive: 0.474 |
| GGACUUUAUUGAAAAUCUGTT against Zfp365 | inactive: 0.101 |
| GGUUCCAGAUGAGAUGAUATT against 5730410I19Rik | inactive: 0.592 |
| GGACAUGAAGUUGUGUGAGTT against Trim26 | inactive: -1.9 |
| GGUGAAACUAAAAAUGGUCTT against Egfl6 | inactive: 0.701 |

Pulled one by one from the entries so far, 4 records:

| Sequence | z-score |
| --- | --- |
| GCCGUAUUUUGCUUGUUUCTT against Gpr35 | inactive: -0.846 |
| CGUAAGUUAUGUGUCUAAGTT against 1810008A18Rik | inactive: -0.452 |
| AGGGCACAAAAGGUGACAATT against Rph3al | inactive: 0.501 |
| GGGUUCAAAACUAUGGAUATT against 2610018G03Rik | inactive: -0.033 |

(continued)

| Sequence | z-score |
| --- | --- |
| GGACUCCUACAGGAAACAATT against Kras2 | inactive: 0.755 |
| CCAUUGCUGUUGUGGUUGATT against H2-Q7 | inactive: -0.663 |
| GGCUAUGCAGCAUAUUAUATT against Ndufa1 | inactive: -0.819 |
| GGAAAAACUGGGAAUGGCUTT against 1600015H20Rik | inactive: 0.609 |
| GCUGAUAAACAUCAGCUACTT against Gm779 | inactive: 1.39 |
| GGUGUGGGUGACCUUUAUCTT against BC010787 | inactive: -0.517 |
| CGAGCACCUAUUCAUCAUATT against Tdo2 | inactive: -1.27 |
| GGGAGCUGAACACAAACACTT against A430107P09Rik | inactive: 2.81 |
| GGUGAUCCUCAUAUUGGCCTT against Npy2r | inactive: -0.259 |
| GCCUAAGGCGCAUAAAUUCTT against 4921526F01Rik | inactive: -0.927 |
| GCGCAAUAAGAUCUUCAUGTT against Ddx55 | inactive: -0.715 |
| GGUGUUCUUGAAGUUUAUATT against 2610020C11Rik | inactive: 0.333 |
| GCCAUAUAAGAUUCUUGUGTT against Pik4cb | inactive: -0.362 |
| GGACUUAGAUCGGAUCAGUTT against Mdm1 | inactive: -0.59 |
| GCCUCAUUAUAAAUCACACTT against A830080D01Rik | inactive: -1.16 |
| CCCUAGAAUGGGAAUGUCATT against C030022K24Rik | inactive: 0.313 |
| GGUAACUGUCCAGAAUCAGTT against 2310020A21Rik | inactive: 1.64 |
| GCGUAUAUAAUUGAGGACUTT against Zfhx4 | inactive: -0.998 |
| CCUAUUUUUUCUCCACUGATT against Sntg1 | inactive: -0.718 |
| GGAGUUCCUUCAGCAAUAUTT against Sdad1 | inactive: -1.19 |
| GGCCUGUCGAAUGAAAGUGTT against Eif2ak4 | inactive: -0.914 |
| CGAGUGGCUGAAACUUCCGTT against Pik3c3 | inactive: 1.17 |
| GGACCGUUUCAUUUCAGGGTT against Phf1 | inactive: 0.431 |
| CGGUCUGAUGGAGUGCUAUTT against Plekhm1 | inactive: 0.775 |
| GGUUAUCGUGCGCAUCCGATT against Pcdh8 | inactive: -0.115 |
| GGCCAUUUGUUAGGACCUGTT against Hrmt1l6 | inactive: 1.19 |

| Sequence | z-score |
| --- | --- |
| CGAGUGAGCAUCACUUUUATT against Mal | inactive: -0.977 |
| CCAUUCCAUGUCGAUGUCUTT against Prm2 | inactive: -2.74 |
| GGACUCACCUCAGGAACAGTT against Cd33 | inactive: -0.698 |
| GGUCCAAAGCAAUUCCAGCTT against E330013P04Rik | inactive: -0.72 |
| GGUCCUUCAACGGAAGGGATT against Tagap | inactive: 0.272 |
| CGUUGUCAUUCACAAGUGATT against A030012E10 | inactive: -0.689 |
| CCCUAGACUAAAAAGUAAATT against Paqr5 | inactive: 1.02 |
| GCUCAAAGCAUUAACUUGUTT against Pbk | inactive: 0.855 |
| GGACUUUGUGGAGAAUGUCTT against Cyp1a2 | inactive: -2.53 |
| CCAAAAAGAUGCUGUUAAGTT against 6430502M16Rik | inactive: 0.176 |
| GCCACUAUUGAAGCUUGCCTT against Olfr1209 | inactive: 0.354 |
| GCACUUUGGGUUUAAGUACTT against Ndrg4 | inactive: -0.966 |
| GGUGCUUGAGAGACUGAUATT against Nes | inactive: -0.0969 |
| GCUGUCAAGCUAUAUGGCGTT against Llglh2 | inactive: 0.0885 |
| CCUGAAGACACCAAGUUCATT against Pcp4 | inactive: -0.384 |
| GGUGAUGCUCGAAUUGGGUTT against Drg1 | inactive: -0.801 |
| GGUGUUUACAGUUGAGAGUTT against BC006705 | inactive: 0.932 |
| GGAAGAAUACAAGUCUAGUTT against Pclo | inactive: 0.0688 |
| GGUUAACAAAGGAAUAGCATT against B230354K17Rik | inactive: 1.17 |
| GGUUUGACUAUUUCAGUGATT against Klrb1c | inactive: -0.023 |
| CCGUCGUGGGUGAUAUCAUTT against 2310022A10Rik | inactive: 1.44 |
| CGCUAUUUGAAAUCUCCAATT against Rgs9 | inactive: -2.04 |
| CCCGAACAGAUCUUGUCGATT against Hoxd10 | inactive: 0.333 |
| GGUGUUCUGUAUCUUGUUCTT against Ndn | inactive: 0.862 |
| CCCAAUAUGCAUAAAACAATT against Azi2 | inactive: 0.388 |
| CCCUAUACUGCCCGAAUCUTT against 6030441F14Rik | inactive: -0.426 |

| Sequence | z-score |
| --- | --- |
| GGGUGAGCUCACGUUCUUUTT against Trim50 | inactive: -0.739 |
| GGCUGUCCAUAUCAUCUACTT against Cxcr4 | inactive: 0.741 |
| CCUGACAAGGUUUUAGCCUTT against 5830472M02Rik | inactive: 0.0149 |
| GCUGGGUAACCGCUAUCAATT against Ubtd1 | inactive: -0.133 |
| GGAGAAUGCUAAGGUUACUTT against Pcdhga9 | inactive: -1.02 |
| GGAAGGACCACGACUCAUATT against Sult2a2 | inactive: 0.329 |
| GCAACAAAGGUGCCGAAACTT against B330016D10Rik | inactive: 0.615 |
| GCUUUGAACGGCGAUAUCATT against Wdtc1 | inactive: 2.05 |
| GGGCUCCUGAGCCUCUUAATT against Sprr1a | inactive: 1.14 |
| GGGAUACAGAUGUAUGAGUTT against 1700030E05Rik | inactive: 0.0641 |
| GCAGCUUCAAGCUAAUUGATT against Tram1l1 | inactive: -0.554 |
| GGACUAUGAAGAGCUAGAGTT against Luzp2 | inactive: -2.22 |
| GGACUCUUCAGCUUCCAGUTT against Uts2 | inactive: -0.288 |
| CCUAGCACUGUUAUAAACATT against Oog1 | inactive: 0.434 |
| GGAGCAUUUUCCAGUUGAGTT against Mrps35 | inactive: -0.687 |
| CCAGCAAUGUACCAGUUCATT against 2410015M20Rik | inactive: -2.03 |
| GGAAGAGGAGAAGAGCAUGTT against Lgals6 | inactive: -0.209 |
| GGACAAAGACUUCCUUGUUTT against Gstt1 | inactive: -1.03 |
| GCAACGACAAACGAAGUGATT against Cdx2 | inactive: 0.628 |
| CCAAGAUCACUCCUGAAAGTT against LOC433332 | inactive: 0.0916 |
| GGCCAAGCACGAUAAAUACTT against Stub1 | inactive: 0.184 |
| GGAUAAGAUCAAUGCCCUCTT against Rplp1 | inactive: -2.05 |
| GCUUUCAUAGCUGGAAACCTT against Olfr173 | inactive: 0.138 |
| CCACAGCUAAAGAAUCUUUTT against 2310008H04Rik | inactive: -1.69 |
| CCAUUCUGAUACUAAGCAATT against Tas2r134 | inactive: -1.39 |

Reference: PubChem BioAssay AID1347423 (Functional Genomics Laboratory (NCATS/FGL), 2020)
